# Percent effect of library compounds

The filed quantity is “Percent Effect” (%). The controls that fix the scale are not given in the record; negative values are as filed. The compounds are a random part of those screened.

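Whole-parasite assay of Trypanosoma brucei over 72 hours; the read-out is not stated. Concentration: 10 µM. Direction is inferred from retests: higher values go with stronger inhibition. Values scatter widely below zero; nearly all retest evidence comes from the higher of the two concentrations used. Size under these conditions: about 2,700 compounds, about 14 of them at 50% or above in at least one test.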

| Compound | percent effect |
|---|---|
| `CCOc1ncccc1NC(=O)N1CCCN(C(=O)OC)CC1` | -64.01 |
| `Cc1ccc(CNC(=O)Nc2nncs2)cn1` | -15.44 |
| `CCc1nc(CN2CCCN(C(=O)c3ccnc(C)n3)CC2)cs1` | -50.07 |
| `O=C(NCC(c1ccc(F)cc1)N1CCOCC1)Nc1cn[nH]c1` (centres undefined) | -38.73 |
| `COc1c(C2CCCN2C(=O)CCNc2ncccn2)c(C)nn1C` (centres undefined) | -41.64 |
| `NC(=O)C1CCN(C(=O)NCc2ccccc2-n2cccn2)CC1` | -13.47 |
| `COc1c(C)cnc(CN2CCOC(Cn3cncn3)C2)c1C` (centres undefined) | -38.3 |
| `c1ccc(Cc2nnc(CN3CCc4cncnc4C3)o2)cc1` | -97.9 |
| `CCN(CC)Cc1ccc(C(=O)N2CCCC2Cn2cccn2)o1` (centres undefined) | -16.71 |
| `Cc1cnn(CC2CCCN2Cc2noc(C(C)(C)C)n2)c1` (centres undefined) | -11.48 |
| `Cc1cccc(C2(CNC(=O)CO)CCCC2)c1` | 10.13 |
| `CN(Cc1ccncc1)C(=O)[C@H]1CSCN1C(=O)OC(C)(C)C` | -69.68 |
| `Cc1cnn(CC2CCCN2Cc2noc(-c3ccccc3)n2)c1` (centres undefined) | -6.842 |
| `CNC(=O)c1ccc(S(=O)(=O)NCc2cccnc2N(C)C)cc1` | -15.27 |
| `CCN(Cc1ccccc1)C(=O)CN1CCOC(Cn2cncn2)C1` (centres undefined) | -58.21 |
| `CCn1cc(NC(=O)NCC(O)COc2ccccc2)cn1` (centres undefined) | 2.207 |
| `Cc1ccc(CC(=O)N2CCCC(c3nccs3)C2)cn1` (centres undefined) | -64.62 |
| `Cc1nc(C2CCCN(C(=O)COCc3ccccc3)C2)no1` (centres undefined) | -44.81 |
| `Cc1noc(C)c1CN1CCN(C(C)c2nc(C3CC3)no2)CC1` (centres undefined) | -25.63 |
| `COc1cc(CNCCc2cnn(C)c2)cc(OC)c1OC` | -10.76 |
| `Cc1cn2c(n1)CCC(NC(=O)c1[nH]nc(C)c1Br)C2` (centres undefined) | 8.504 |
| `Cc1nccn1C1CCCN(C(=O)COC2CCCC2)C1` (centres undefined) | -63.83 |
| `CN(C)c1ncccc1CNC(=O)NCc1ccc(Cl)s1` | -45.07 |
| `CC(=O)N(Cc1ncc(C)o1)C1CCN(CCc2cnn(C)c2)C1` (centres undefined) | -33.77 |
| `CC(=O)N(Cc1ncc(C)o1)C1CCN(Cc2nccn2C)C1` (centres undefined) | -40.06 |
| `CCc1ccc(C(=O)NCc2ccnc(N3CCN(C)CC3)c2)o1` | 5.661 |
| `Cc1cc(C)n(CC(=O)N2CCC(Nc3cccnn3)CC2)n1` | -35.28 |
| `O=C(c1cccc(CNS(=O)(=O)c2ccc(F)cc2)c1)N1CCCC1` | -48.07 |
| `Cn1cnnc1C1CCCN(C(=O)NCCn2ccnc2)C1` (centres undefined) | -40.37 |
| `CN(C)c1ccc(C(=O)NCc2csc(Br)c2)cn1` | -41.92 |
| `CCc1n[nH]c(C2CN(C(=O)c3cncnc3CC)CCO2)n1` (centres undefined) | -4.982 |

Once more, the final 2:

| Compound | percent effect |
|---|---|
| `CN(C)c1ccc(C(=O)NCc2csc(Br)c2)cn1` | -41.92 |
| `CCc1n[nH]c(C2CN(C(=O)c3cncnc3CC)CCO2)n1` (centres undefined) | -4.982 |

Measurements from “University of Dundee, Small-Polar-MMV Screening Library” (2021), ChEMBL document CHEMBL3988442.